{"source": "patent US20240293316A1", "about": "“ENZYME-RESPONSIVE POLYMER PEPTIDE AMPHIPHILES FOR TARGETED DRUG DELIVERY TO TREAT LOCAL AND SYSTEMIC INFLAMMATION” (Ramot at Tel-Aviv University Ltd., priority 2021, published 2024)", "assay": "Properties of the designed random peptide (water solubility, net charge)", "format": "physicochemical", "conditions": "pH=7", "experimental": "A new random peptide sequence was designed by replacing the MMP recognizable amino acid sequence PLGLAG (SEQ ID NO: 16) into GSGSGS (SEQ ID NO: 20).\nFollowing the preparation of peptide functionalized norbornene monomers, an MMP-9 cleavage assay was performed setup, as described in the Materials and Methods section hereinabove.", "note": "Part of at least one peptide drawing is inferred or uncertain, most often the ends. Ends that are not written are not given here.", "data": [{"substance": "GGSGSGSGWGERDGS-NH2 (C-terminus assumed) [random peptide]", "values": [{"measurement": "net charge", "result": "−1"}]}]}
